Experimental data: publication doi:10.1101/2025.01.30.635772
No constants are given. Whether binding was seen depends on the method and setting. In cells and extracts the contact can be indirect. Some entries that bind do so weakly or less than the wild type. Where a sequence is shown, tags or fusion partners need not be part of it.

Amino acid sequences for entries named in this document (tags omitted).
UniProt Q16637: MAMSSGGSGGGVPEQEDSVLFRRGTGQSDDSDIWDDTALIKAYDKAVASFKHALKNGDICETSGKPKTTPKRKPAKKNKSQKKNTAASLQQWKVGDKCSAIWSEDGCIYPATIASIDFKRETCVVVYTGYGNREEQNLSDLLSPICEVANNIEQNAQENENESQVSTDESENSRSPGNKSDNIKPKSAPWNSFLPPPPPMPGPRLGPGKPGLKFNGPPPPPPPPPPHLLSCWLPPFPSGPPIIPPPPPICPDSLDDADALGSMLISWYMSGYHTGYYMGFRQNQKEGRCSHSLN

Biological target: mCherry-SMN^WT expressed in HeLa cells (human) (UniProt Q16637)
Test: FRET or BRET

binding: binds
B1: GAR1-EGFP expressed in HeLa cells (protein, UniProt Q9NY12 1-217)
chain: MSFRGGGRGGFNRGGGGGGFNRGGSSNHFRGGGGGGGGGNFRGGGRGGFGRGGGRGGFNKGQDQGPPERVVLLGEFLHPCEDDIVCKCTTDENKVPYFNAPVYLENKEQIGKVDEIFGQLRDFYFSVKLSENMKASSFKKLQKFYIDPYKLLPLQRFLPRPPGEKGPPRGGGRGGRGGGRGGGGRGGGRGGGFRGGRGGGGGGFRGGRGGGFRGRGH
